Consider 10 molecules from publication doi:10.1101/2020.03.04.975474.

By UniProt entry, the sequences of proteins in these tests, tags left out.
UniProt P48634: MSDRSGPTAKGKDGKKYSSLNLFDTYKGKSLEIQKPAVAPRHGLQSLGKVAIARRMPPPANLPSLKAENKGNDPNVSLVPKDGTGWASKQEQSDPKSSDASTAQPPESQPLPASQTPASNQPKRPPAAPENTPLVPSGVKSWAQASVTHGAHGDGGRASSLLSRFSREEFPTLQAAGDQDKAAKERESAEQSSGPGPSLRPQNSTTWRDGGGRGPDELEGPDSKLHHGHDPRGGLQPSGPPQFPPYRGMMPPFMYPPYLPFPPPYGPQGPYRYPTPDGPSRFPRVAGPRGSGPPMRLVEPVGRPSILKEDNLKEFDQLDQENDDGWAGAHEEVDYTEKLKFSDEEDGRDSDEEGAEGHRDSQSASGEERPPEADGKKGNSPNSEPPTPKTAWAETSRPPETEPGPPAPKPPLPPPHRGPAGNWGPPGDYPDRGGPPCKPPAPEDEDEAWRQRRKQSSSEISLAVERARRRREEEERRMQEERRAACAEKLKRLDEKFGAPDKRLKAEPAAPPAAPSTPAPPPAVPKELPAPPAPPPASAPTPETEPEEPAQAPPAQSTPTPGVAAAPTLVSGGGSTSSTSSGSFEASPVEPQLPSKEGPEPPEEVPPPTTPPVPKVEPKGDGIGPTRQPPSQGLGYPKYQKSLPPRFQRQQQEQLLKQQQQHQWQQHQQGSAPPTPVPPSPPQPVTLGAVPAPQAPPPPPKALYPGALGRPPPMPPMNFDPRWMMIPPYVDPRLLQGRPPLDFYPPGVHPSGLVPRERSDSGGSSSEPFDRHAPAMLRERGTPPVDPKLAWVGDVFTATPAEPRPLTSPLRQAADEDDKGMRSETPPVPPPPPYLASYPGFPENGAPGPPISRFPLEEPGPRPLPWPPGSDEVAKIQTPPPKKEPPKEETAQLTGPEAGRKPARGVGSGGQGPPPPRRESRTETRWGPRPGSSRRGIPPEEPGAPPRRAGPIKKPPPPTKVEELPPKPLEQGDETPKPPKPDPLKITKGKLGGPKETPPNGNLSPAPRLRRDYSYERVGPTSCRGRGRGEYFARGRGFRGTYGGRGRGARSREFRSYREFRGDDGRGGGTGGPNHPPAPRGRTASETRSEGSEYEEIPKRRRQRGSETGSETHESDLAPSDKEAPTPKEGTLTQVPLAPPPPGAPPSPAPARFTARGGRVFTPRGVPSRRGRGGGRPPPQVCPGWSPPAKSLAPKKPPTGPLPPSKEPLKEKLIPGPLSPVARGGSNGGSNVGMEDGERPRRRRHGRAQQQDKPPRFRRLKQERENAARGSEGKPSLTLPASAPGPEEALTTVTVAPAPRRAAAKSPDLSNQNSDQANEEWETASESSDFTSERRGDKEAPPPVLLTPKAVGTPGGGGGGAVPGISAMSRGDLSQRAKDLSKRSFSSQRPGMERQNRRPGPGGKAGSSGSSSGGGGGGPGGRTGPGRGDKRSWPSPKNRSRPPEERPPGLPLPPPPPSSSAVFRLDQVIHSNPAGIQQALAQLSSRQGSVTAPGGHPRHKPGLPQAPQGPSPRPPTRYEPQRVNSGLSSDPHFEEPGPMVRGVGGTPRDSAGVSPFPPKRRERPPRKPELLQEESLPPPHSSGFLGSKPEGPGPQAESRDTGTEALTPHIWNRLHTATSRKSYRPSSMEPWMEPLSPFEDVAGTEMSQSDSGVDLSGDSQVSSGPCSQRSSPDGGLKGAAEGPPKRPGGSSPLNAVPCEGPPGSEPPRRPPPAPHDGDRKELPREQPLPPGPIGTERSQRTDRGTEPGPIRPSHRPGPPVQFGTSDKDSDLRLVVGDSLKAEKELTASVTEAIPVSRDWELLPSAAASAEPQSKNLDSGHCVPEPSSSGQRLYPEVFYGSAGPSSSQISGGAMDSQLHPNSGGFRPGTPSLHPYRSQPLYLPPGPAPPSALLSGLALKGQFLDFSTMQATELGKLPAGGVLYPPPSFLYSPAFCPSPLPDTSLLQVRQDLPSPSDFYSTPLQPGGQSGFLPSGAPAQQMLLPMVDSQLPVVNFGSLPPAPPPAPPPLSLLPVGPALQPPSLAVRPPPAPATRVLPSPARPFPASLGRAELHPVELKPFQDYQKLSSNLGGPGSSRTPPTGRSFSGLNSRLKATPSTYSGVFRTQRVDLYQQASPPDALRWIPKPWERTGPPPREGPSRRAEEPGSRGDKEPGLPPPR
UniProt Q14157: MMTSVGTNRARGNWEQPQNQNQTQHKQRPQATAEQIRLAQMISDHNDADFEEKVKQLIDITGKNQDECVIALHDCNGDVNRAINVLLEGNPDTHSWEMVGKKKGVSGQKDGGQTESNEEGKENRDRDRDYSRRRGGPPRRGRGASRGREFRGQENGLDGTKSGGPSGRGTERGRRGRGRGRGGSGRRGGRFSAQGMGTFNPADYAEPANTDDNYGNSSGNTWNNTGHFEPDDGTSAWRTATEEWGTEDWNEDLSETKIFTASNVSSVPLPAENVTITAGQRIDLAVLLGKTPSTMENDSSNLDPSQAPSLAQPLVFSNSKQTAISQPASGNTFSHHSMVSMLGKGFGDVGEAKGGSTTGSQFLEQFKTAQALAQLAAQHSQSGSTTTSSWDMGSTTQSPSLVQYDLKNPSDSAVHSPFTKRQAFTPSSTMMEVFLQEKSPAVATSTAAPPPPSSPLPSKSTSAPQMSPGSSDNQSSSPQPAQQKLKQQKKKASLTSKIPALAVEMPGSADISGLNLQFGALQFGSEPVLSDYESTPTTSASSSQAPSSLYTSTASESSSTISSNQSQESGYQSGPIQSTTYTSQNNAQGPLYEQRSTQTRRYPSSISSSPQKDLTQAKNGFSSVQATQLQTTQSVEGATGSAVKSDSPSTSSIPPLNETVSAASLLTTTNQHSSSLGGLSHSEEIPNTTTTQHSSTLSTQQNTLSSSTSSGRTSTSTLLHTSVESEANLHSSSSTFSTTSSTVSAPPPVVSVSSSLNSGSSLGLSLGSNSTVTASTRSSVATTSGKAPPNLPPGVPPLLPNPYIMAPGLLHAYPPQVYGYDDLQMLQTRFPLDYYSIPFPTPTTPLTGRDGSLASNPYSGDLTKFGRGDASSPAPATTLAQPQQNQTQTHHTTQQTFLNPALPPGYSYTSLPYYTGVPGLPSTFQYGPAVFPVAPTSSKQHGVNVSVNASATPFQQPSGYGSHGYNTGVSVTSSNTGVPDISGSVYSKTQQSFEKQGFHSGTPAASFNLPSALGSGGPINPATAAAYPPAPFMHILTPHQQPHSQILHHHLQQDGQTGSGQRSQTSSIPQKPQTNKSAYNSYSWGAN
UniProt Q7KZF4: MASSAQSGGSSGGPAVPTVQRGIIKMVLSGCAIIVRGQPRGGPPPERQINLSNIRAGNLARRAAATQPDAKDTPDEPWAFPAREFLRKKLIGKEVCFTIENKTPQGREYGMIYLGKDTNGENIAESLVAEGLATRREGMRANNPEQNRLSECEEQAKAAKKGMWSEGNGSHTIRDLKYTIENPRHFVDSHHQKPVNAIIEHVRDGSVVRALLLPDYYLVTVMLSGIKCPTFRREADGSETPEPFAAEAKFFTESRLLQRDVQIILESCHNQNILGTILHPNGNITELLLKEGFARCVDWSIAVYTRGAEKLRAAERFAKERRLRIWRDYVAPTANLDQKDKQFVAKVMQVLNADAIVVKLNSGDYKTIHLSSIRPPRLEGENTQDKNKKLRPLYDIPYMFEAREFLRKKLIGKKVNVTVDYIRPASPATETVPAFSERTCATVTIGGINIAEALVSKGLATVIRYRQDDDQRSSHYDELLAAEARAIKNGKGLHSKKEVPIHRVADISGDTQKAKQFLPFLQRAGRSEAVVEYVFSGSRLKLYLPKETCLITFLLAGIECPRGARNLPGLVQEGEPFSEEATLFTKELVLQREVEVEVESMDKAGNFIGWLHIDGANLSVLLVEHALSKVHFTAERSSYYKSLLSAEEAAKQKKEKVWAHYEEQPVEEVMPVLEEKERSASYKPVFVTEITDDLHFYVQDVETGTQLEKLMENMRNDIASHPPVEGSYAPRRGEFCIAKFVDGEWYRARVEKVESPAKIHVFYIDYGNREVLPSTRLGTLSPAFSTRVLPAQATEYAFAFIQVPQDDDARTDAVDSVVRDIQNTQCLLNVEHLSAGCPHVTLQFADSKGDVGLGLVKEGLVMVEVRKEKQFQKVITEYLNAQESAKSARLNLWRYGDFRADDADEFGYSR
UniProt P55010: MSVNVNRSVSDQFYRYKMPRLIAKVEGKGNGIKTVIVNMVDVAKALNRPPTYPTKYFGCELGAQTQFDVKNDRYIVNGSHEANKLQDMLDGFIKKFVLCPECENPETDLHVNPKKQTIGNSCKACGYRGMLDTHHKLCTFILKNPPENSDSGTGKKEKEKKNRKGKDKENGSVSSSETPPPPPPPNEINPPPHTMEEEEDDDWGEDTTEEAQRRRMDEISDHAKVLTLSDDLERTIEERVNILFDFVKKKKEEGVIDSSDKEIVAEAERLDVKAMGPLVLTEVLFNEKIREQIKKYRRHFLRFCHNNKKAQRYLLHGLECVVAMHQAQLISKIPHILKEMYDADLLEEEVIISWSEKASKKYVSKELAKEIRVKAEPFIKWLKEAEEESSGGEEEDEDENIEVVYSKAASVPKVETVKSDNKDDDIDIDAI

Assay [1] concerns the target T1, LRRC59-BirA reporter (UniProt Q96AG4).
T1 sequence: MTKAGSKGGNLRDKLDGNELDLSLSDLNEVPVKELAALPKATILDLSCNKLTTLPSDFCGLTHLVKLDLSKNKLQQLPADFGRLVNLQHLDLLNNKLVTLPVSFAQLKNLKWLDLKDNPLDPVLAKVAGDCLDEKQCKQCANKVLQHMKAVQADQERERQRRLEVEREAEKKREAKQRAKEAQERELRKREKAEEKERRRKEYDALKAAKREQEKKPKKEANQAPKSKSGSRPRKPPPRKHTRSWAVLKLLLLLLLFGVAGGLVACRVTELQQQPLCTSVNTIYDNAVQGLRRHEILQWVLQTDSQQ
Nature of the assay: proximity labelling.

Assay [2] has as its target T1, LRRC59-BirA reporter. The assay is described as follows: proximity labelling. This is another data set of the same source.
Assay [3] addresses T2, LRRC59 (native, immunoprecipitated from Caco-2 cells) (human (endogenous in Caco-2)) (UniProt Q96AG4).
T2 sequence: T1 sequence
The assay is described as follows: affinity purification with mass spectrometry.

Read-outs that look alike come from different tables or passages of the source. These are yes or no findings as the source states them, for the method shown. Binding seen in cells or lysates may run through a third protein. A yes stands for co-enrichment or nearness to the bait. Other partners may have been found.

PRRC2A (from UniProt P48634 1-2157): the binding entry in assay [1] is “binds”.

As for UBAP2L (from UniProt Q14157 1-1087), the binding entry in assay [1] is “binds”.

Take SND1 (from UniProt Q7KZF4 1-910): the binding result in assay [1] is recorded as “binds”.

For the molecule eIF5 (from UniProt P55010 1-431), the binding result in assay [1] is listed as “binds”.

B1: RRBP1 (p180, ribosome-binding protein) (protein, UniProt Q9P2E9 1-1410)
chain: MDIYDTQTLGVVVFGGFMVVSAIGIFLVSTFSMKETSYEEALANQRKEMAKTHHQKVEKKKKEKTVEKKGKTKKKEEKPNGKIPDHDPAPNVTVLLREPVRAPAVAVAPTPVQPPIIVAPVATVPAMPQEKLASSPKDKKKKEKKVAKVEPAVSSVVNSIQVLTSKAAILETAPKEVPMVVVPPVGAKGNTPATGTTQGKKAEGTQNQSKKAEGAPNQGRKAEGTPNQGKKTEGTPNQGKKAEGTPNQGKKAEGTPNQGKKAEGAQNQGKKVDTTPNQGKKVEGAPTQGRKAEGAQNQAKKVEGAQNQGKKAEGAQNQGKKGEGAQNQGKKAEGAQNQGKKAEGAQNQGKKAEGAQNQGKKAEGAQNQGKKAEGAQNQGKKAEGAQNQGKKVEGAQNQGKKAEGAQNQGKKAEGAQNQGKKAEGAQNQGKKAEGAQNQGKKAEGAQNQGKKAEGAQNQGKKAEGAQNQGKKVEGAQNQGKKAEGAQNQGKKAEGAQNQGKKAEGAQNQGQKGEGAQNQGKKTEGAQGKKAERSPNQGKKGEGAPIQGKKADSVANQGTKVEGITNQGKKAEGSPSEGKKAEGSPNQGKKADAAANQGKKTESASVQGRNTDVAQSPEAPKQEAPAKKKSGSKKKGEPGPPDADGPLYLPYKTLVSTVGSMVFNEGEAQRLIEILSEKAGIIQDTWHKATQKGDPVAILKRQLEEKEKLLATEQEDAAVAKSKLRELNKEMAAEKAKAAAGEAKVKKQLVAREQEITAVQARMQASYREHVKEVQQLQGKIRTLQEQLENGPNTQLARLQQENSILRDALNQATSQVESKQNAELAKLRQELSKVSKELVEKSEAVRQDEQQRKALEAKAAAFEKQVLQLQASHRESEEALQKRLDEVSRELCHTQSSHASLRADAEKAQEQQQQMAELHSKLQSSEAEVRSKCEELSGLHGQLQEARAENSQLTERIRSIEALLEAGQARDAQDVQASQAEADQQQTRLKELESQVSGLEKEAIELREAVEQQKVKNNDLREKNWKAMEALATAEQACKEKLLSLTQAKEESEKQLCLIEAQTMEALLALLPELSVLAQQNYTEWLQDLKEKGPTLLKHPPAPAEPSSDLASKLREAEETQSTLQAECDQYRSILAETEGMLRDLQKSVEEEEQVWRAKVGAAEEELQKSRVTVKHLEEIVEKLKGELESSDQVREHTSHLEAELEKHMAAASAECQNYAKEVAGLRQLLLESQSQLDAAKSEAQKQSDELALVRQQLSEMKSHVEDGDIAGAPASSPEAPPAEQDPVQLKTQLEWTEAILEDEQTQRQKLTAEFEEAQTSACRLQEELEKLRTAGPLESSETEEASQLKERLEKEKKLTSDLGRAATRLQELLKTTQEQLAREKDTVKKLQEQLEKAEDGSSSKEGTSV
Regarding B1, the binding result in assay [2] and in assay [3] was “binds” in each case.

B2: SRP68 (protein, UniProt Q9UHB9 1-627)
chain: MAAEKQVPGGGGGGGSGGGGGSGGGGSGGGRGAGGEENKENERPSAGSKANKEFGDSLSLEILQIIKESQQQHGLRHGDFQRYRGYCSRRQRRLRKTLNFKMGNRHKFTGKKVTEELLTDNRYLLLVLMDAERAWSYAMQLKQEANTEPRKRFHLLSRLRKAVKHAEELERLCESNRVDAKTKLEAQAYTAYLSGMLRFEHQEWKAAIEAFNKCKTIYEKLASAFTEEQAVLYNQRVEEISPNIRYCAYNIGDQSAINELMQMRLRSGGTEGLLAEKLEALITQTRAKQAATMSEVEWRGRTVPVKIDKVRIFLLGLADNEAAIVQAESEETKERLFESMLSECRDAIQVVREELKPDQKQRDYILEGEPGKVSNLQYLHSYLTYIKLSTAIKRNENMAKGLQRALLQQQPEDDSKRSPRPQDLIRLYDIILQNLVELLQLPGLEEDKAFQKEIGLKTLVFKAYRCFFIAQSYVLVKKWSEALVLYDRVLKYANEVNSDAGAFKNSLKDLPDVQELITQVRSEKCSLQAAAILDANDAHQTETSSSQVKDNKPLVERFETFCLDPSLVTKQANLVHFPPGFQPIPCKPLFFDLALNHVAFPPLEDKLEQKTKSGLTGYIKGIFGFRS
On to B2, for which the binding result in assay [2] and in assay [3] was “binds” in each case.

B3: DHX29 (protein, UniProt Q7Z478 1-1369)
chain: MGGKNKKHKAPAAAVVRAAVSASRAKSAEAGIAGEAQSKKPVSRPATAAAAAAGSREPRVKQGPKIYSFNSTNDSSGPANLDKSILKVVINNKLEQRIIGVINEHKKQNNDKGMISGRLTAKKLQDLYMALQAFSFKTKDIEDAMTNTLLYGGDLHSALDWLCLNLSDDALPEGFSQEFEEQQPKSRPKFQSPQIQATISPPLQPKTKTYEEDPKSKPKKEEKNMEVNMKEWILRYAEQQNEEEKNENSKSLEEEEKFDPNERYLHLAAKLLDAKEQAATFKLEKNKQGQKEAQEKIRKFQREMETLEDHPVFNPAMKISHQQNERKKPPVATEGESALNFNLFEKSAAATEEEKDKKKEPHDVRNFDYTARSWTGKSPKQFLIDWVRKNLPKSPNPSFEKVPVGRYWKCRVRVIKSEDDVLVVCPTILTEDGMQAQHLGATLALYRLVKGQSVHQLLPPTYRDVWLEWSDAEKKREELNKMETNKPRDLFIAKLLNKLKQQQQQQQQHSENKRENSEDPEESWENLVSDEDFSALSLESANVEDLEPVRNLFRKLQSTPKYQKLLKERQQLPVFKHRDSIVETLKRHRVVVVAGETGSGKSTQVPHFLLEDLLLNEWEASKCNIVCTQPRRISAVSLANRVCDELGCENGPGGRNSLCGYQIRMESRACESTRLLYCTTGVLLRKLQEDGLLSNVSHVIVDEVHERSVQSDFLLIILKEILQKRSDLHLILMSATVDSEKFSTYFTHCPILRISGRSYPVEVFHLEDIIEETGFVLEKDSEYCQKFLEEEEEVTINVTSKAGGIKKYQEYIPVQTGAHADLNPFYQKYSSRTQHAILYMNPHKINLDLILELLAYLDKSPQFRNIEGAVLIFLPGLAHIQQLYDLLSNDRRFYSERYKVIALHSILSTQDQAAAFTLPPPGVRKIVLATNIAETGITIPDVVFVIDTGRTKENKYHESSQMSSLVETFVSKASALQRQGRAGRVRDGFCFRMYTRERFEGFMDYSVPEILRVPLEELCLHIMKCNLGSPEDFLSKALDPPQLQVISNAMNLLRKIGACELNEPKLTPLGQHLAALPVNVKIGKMLIFGAIFGCLDPVATLAAVMTEKSPFTTPIGRKDEADLAKSALAMADSDHLTIYNAYLGWKKARQEGGYRSEITYCRRNFLNRTSLLTLEDVKQELIKLVKAAGFSSSTTSTSWEGNRASQTLSFQEIALLKAVLVAGLYDNVGKIIYTKSVDVTEKLACIVETAQGKAQVHPSSVNRDLQTHGWLLYQEKIRYARVYLRETTLITPFPVLLFGGDIEVQHRERLLSIDGWIYFQAPVKIAVIFKQLRVLIDSVLRKKLENPKMSLENDKILQIITELIKTENN
As to B3, the binding result in assay [2] and in assay [3] was “binds” each time.

B4: MTDH/AEG-1 (protein, UniProt Q86UE4 1-582)
chain: MAARSWQDELAQQAEEGSARLREMLSVGLGFLRTELGLDLGLEPKRYPGWVILVGTGALGLLLLFLLGYGWAAACAGARKKRRSPPRKREEAAAVPAAAPDDLALLKNLRSEEQKKKNRKKLSEKPKPNGRTVEVAEGEAVRTPQSVTAKQPPEIDKKNEKSKKNKKKSKSDAKAVQNSSRHDGKEVDEGAWETKISHREKRQQRKRDKVLTDSGSLDSTIPGIENTITVTTEQLTTASFPVGSKKNKGDSHLNVQVSNFKSGKGDSTLQVSSGLNENLTVNGGGWNEKSVKLSSQISAGEEKWNSVSPASAGKRKTEPSAWSQDTGDANTNGKDWGRSWSDRSIFSGIGSTAEPVSQSTTSDYQWDVSRNQPYIDDEWSGLNGLSSADPNSDWNAPAEEWGNWVDEERASLLKSQEPIPDDQKVSDDDKEKGEGALPTGKSKKKKKKKKKQGEDNSTAQDTEELEKEIREDLPVNTSKTRPKQEKAFSLKTISTSDPAEVLVKNSQPIKTLPPATSTEPSVILSKSDSDKSSSQVPPILQETDKSKSNTKQNSVPPSQTKSETSWESPKQIKKKKKARRET
Take B4: in assay [2], the binding result is given as “binds”.

B5: SRP72 (protein, UniProt O76094 1-671)
chain: MASGGSGGVSVPALWSEVNRYGQNGDFTRALKTVNKILQINKDDVTALHCKVVCLIQNGSFKEALNVINTHTKVLANNSLSFEKAYCEYRLNRIENALKTIESANQQTDKLKELYGQVLYRLERYDECLAVYRDLVRNSQDDYDEERKTNLSAVVAAQSNWEKVVPENLGLQEGTHELCYNTACALIGQGQLNQAMKILQKAEDLCRRSLSEDTDGTEEDPQAELAIIHGQMAYILQLQGRTEEALQLYNQIIKLKPTDVGLLAVIANNIITINKDQNVFDSKKKVKLTNAEGVEFKLSKKQLQAIEFNKALLAMYTNQAEQCRKISASLQSQSPEHLLPVLIQAAQLCREKQHTKAIELLQEFSDQHPENAAEIKLTMAQLKISQGNISKACLILRSIEELKHKPGMVSALVTMYSHEEDIDSAIEVFTQAIQWYQNHQPKSPAHLSLIREAANFKLKYGRKKEAISDLQQLWKQNPKDIHTLAQLISAYSLVDPEKAKALSKHLPSSDSMSLKVDVEALENSAGATYIRKKGGKVTGDSQPKEQGQGDLKKKKKKKKGKLPKNYDPKVTPDPERWLPMRERSYYRGRKKGKKKDQIGKGTQGATAGASSELDASKTVSSPPTSPRPGSAATVSASTSNIIPPRHQKPAGAPATKKKQQQKKKKGGKGGW
As to B5, the binding entry in assay [2] and in assay [3] was “binds” in each case.

B6: eIF2A (protein, UniProt Q9BY44 1-585)
chain: MAPSTPLLTVRGSEGLYMVNGPPHFTESTVFPRESGKNCKVCIFSKDGTLFAWGNGEKVNIISVTNKGLLHSFDLLKAVCLEFSPKNTVLATWQPYTTSKDGTAGIPNLQLYDVKTGTCLKSFIQKKMQNWCPSWSEDETLCARNVNNEVHFFENNNFNTIANKLHLQKINDFVLSPGPQPYKVAVYVPGSKGAPSFVRLYQYPNFAGPHAALANKSFFKADKVTMLWNKKATAVLVIASTDVDKTGASYYGEQTLHYIATNGESAVVQLPKNGPIYDVVWNSSSTEFCAVYGFMPAKATIFNLKCDPVFDFGTGPRNAAYYSPHGHILVLAGFGNLRGQMEVWDVKNYKLISKPVASDSTYFAWCPDGEHILTATCAPRLRVNNGYKIWHYTGSILHKYDVPSNAELWQVSWQPFLDGIFPAKTITYQAVPSEVPNEEPKVATAYRPPALRNKPITNSKLHEEEPPQNMKPQSGNDKPLSKTALKNQRKHEAKKAAKQEARSDKSPDLAPTPAPQSTPRNTVSQSISGDPEIDKKIKNLKKKLKAIEQLKEQAATGKQLEKNQLEKIQKETALLQELEDLELGI
For B6, the binding entry in assay [2] is given as “binds”.
